The record followed here is article PMC12624062.

The chains behind the UniProt entries cited, without tags or fusion partners.
UniProt Q8CDG1: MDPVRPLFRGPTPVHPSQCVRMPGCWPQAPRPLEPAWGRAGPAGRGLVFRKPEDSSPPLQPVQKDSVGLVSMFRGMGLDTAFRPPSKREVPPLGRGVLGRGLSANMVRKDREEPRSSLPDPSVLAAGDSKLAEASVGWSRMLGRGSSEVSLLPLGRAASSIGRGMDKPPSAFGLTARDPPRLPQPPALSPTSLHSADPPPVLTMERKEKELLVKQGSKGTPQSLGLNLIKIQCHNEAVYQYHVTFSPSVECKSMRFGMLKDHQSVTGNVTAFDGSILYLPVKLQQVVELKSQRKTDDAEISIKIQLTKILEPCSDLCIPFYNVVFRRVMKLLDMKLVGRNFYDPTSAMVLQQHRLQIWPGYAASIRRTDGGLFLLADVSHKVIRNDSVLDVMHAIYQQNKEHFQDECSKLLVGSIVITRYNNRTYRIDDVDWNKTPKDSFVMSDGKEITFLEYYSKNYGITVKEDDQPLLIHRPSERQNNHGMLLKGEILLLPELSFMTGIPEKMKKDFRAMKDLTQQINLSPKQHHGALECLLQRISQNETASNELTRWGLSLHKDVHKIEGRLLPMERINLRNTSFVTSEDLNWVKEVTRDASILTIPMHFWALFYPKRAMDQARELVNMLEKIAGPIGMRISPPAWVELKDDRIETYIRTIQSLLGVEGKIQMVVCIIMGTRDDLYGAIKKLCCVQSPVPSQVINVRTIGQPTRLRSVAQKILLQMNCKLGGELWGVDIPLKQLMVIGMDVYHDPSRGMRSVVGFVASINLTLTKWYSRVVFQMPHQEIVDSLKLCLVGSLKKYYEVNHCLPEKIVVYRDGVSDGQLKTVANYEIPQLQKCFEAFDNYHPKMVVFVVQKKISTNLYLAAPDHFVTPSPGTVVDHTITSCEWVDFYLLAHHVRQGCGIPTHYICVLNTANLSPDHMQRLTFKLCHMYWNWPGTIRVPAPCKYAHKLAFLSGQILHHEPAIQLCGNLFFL
UniProt Q9JMB7: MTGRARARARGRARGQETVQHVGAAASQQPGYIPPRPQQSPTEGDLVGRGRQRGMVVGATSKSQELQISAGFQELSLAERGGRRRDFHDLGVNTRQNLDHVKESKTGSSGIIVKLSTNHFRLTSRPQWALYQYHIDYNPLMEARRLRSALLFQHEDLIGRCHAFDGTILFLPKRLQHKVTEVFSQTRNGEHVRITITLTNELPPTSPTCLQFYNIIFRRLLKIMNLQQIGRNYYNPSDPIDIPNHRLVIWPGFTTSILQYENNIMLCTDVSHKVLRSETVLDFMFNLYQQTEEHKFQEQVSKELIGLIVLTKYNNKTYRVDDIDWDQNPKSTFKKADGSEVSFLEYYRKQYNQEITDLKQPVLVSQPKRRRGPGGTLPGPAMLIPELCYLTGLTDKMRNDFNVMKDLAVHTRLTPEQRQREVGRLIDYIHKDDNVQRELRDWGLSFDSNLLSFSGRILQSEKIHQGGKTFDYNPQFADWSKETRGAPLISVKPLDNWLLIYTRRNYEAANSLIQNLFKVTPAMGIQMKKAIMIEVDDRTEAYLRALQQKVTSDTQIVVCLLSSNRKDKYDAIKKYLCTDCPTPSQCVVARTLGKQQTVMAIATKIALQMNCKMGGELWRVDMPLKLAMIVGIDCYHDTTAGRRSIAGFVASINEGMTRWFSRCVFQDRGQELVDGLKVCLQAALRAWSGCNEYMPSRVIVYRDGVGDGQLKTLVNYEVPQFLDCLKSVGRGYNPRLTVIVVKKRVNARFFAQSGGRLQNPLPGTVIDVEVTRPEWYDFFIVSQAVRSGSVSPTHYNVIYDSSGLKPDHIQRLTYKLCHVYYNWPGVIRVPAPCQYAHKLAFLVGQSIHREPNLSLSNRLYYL
UniProt Q9D5P4: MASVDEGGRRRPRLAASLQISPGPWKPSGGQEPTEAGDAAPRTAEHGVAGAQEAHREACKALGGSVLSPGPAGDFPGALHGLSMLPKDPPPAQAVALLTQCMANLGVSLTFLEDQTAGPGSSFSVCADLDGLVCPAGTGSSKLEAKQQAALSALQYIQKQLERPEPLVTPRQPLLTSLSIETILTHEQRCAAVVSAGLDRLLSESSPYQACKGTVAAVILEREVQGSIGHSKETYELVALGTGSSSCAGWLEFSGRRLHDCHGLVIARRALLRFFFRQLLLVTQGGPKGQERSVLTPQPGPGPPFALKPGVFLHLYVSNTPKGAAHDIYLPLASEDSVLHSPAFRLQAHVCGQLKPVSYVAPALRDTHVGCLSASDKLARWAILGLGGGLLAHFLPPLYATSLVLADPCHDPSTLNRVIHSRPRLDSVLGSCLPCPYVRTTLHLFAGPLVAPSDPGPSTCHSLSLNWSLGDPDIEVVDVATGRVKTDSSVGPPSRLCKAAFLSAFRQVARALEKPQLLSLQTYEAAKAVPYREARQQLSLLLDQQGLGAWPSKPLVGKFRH

Results are given in words; binding and its absence hold for the method and conditions named. Binding seen in cells or lysates may run through a third protein. Here binding means that the protein was enriched with, or labelled near, the bait; the list need not be complete.

The target of test [1] is PIWIL2 (endogenous, mouse testis) (mouse (endogenous in testis)) (UniProt Q8CDG1). The test is described as follows: affinity purification with mass spectrometry; P20 wild-type mouse testis lysates; IP with PIWIL2, ASZ1 or TDRD1 antibodies against rabbit IgG control; Protein A/G agarose; LC-MS; n = 3.
The target of test [2] is T1, TDRD1 (endogenous, mouse testis) (mouse (endogenous in testis)) (UniProt Q99MV1).
T1 sequence: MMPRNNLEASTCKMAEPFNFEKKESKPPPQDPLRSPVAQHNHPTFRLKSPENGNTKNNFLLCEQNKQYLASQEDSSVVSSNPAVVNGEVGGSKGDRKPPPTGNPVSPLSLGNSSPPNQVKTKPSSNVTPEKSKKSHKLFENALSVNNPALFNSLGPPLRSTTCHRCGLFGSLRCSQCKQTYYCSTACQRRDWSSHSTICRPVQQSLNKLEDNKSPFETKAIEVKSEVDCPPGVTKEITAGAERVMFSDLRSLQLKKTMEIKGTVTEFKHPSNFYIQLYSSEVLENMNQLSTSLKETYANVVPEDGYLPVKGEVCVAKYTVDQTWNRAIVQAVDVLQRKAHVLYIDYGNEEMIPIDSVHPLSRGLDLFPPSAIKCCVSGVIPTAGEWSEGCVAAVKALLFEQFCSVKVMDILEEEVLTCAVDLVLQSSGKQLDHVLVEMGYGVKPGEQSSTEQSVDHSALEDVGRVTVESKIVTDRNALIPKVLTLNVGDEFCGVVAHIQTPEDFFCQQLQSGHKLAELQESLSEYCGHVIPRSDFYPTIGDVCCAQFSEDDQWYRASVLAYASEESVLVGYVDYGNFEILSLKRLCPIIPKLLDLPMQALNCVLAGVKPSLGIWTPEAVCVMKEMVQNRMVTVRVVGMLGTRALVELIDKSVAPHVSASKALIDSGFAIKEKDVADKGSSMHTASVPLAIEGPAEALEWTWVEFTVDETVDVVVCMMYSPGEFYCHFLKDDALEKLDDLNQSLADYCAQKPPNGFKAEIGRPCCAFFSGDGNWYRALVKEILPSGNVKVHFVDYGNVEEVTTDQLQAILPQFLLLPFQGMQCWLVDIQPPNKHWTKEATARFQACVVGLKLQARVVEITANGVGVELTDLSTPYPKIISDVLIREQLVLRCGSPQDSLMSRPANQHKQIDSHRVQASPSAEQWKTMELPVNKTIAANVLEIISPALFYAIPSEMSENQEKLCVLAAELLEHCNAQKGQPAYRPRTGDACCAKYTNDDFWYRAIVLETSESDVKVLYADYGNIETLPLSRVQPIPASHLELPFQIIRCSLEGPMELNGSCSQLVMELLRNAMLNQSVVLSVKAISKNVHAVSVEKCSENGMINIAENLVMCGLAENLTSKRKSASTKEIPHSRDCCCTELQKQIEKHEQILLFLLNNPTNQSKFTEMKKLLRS
The test is described as above.

As for “PIWIL1 (endogenous, mouse testis) (from UniProt Q9JMB7 1-862)”, the binding result in test [1] and in test [2] was “binds” in each case.
In the case of “ADAD2 (endogenous, mouse testis) (from UniProt Q9D5P4 1-561)”, the binding result in test [1] was “binds”.
